Data taken from patent US20180235193A1 (MINERVA BIOTECHNOLOGIES, published 2018).
Results are given in words; binding and its absence hold for the method and conditions named. Binding seen in cells or lysates may run through a third protein. Some binding calls cover weakened binding; strength is not graded here.

Chains of the proteins cited; added tags and fusions are not shown. Lines headed by an entry give the natural chain unless they say otherwise; changes in a name come on top.
UniProt P15941: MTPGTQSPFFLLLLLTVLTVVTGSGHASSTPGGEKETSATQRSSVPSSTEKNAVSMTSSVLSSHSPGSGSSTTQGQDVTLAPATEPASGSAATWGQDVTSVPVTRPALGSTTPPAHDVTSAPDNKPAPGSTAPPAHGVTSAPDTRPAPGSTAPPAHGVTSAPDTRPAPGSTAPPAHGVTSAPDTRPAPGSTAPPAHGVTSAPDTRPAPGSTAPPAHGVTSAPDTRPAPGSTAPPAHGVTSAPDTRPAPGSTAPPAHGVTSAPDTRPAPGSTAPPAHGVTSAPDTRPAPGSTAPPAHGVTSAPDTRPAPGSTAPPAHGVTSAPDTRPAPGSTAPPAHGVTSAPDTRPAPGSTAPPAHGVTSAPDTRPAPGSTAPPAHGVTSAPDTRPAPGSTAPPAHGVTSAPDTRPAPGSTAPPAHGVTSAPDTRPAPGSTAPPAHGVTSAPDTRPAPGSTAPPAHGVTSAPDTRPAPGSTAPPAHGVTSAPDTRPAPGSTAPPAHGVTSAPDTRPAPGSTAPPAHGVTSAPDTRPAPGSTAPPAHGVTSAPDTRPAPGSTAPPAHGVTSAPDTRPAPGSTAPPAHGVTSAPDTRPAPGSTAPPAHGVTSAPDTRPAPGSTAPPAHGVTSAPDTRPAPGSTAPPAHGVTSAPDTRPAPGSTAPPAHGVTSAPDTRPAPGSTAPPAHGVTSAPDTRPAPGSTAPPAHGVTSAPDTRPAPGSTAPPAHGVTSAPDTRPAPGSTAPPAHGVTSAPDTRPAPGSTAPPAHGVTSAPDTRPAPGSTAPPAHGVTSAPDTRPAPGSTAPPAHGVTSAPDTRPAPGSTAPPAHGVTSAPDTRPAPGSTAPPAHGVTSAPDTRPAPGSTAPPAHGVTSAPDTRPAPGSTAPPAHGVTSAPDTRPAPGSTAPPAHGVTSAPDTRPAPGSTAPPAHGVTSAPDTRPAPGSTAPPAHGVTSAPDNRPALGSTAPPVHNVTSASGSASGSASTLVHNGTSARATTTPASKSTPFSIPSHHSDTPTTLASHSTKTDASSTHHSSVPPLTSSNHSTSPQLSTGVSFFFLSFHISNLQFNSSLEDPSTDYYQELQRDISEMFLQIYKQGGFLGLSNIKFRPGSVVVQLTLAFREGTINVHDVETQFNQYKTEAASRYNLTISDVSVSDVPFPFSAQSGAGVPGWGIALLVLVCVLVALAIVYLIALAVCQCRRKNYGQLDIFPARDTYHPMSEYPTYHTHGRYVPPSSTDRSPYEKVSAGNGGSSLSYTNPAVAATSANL
UniProt Q9Y5B8: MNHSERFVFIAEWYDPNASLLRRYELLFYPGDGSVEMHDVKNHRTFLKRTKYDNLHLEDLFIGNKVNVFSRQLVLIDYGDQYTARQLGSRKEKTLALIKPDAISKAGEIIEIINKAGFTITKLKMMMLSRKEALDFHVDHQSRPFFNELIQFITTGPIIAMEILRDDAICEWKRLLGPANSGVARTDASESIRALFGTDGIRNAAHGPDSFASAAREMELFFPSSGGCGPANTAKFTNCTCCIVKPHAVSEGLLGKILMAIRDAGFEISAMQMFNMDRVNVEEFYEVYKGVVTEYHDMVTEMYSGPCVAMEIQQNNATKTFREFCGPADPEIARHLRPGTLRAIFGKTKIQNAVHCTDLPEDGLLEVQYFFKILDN

Molecular target: MUC1* growth factor receptor (cleaved form of human MUC1) (human) (UniProt P15941)
Experiment: co-immunoprecipitation from human iPS and ES cell lysates with Ab5, Western blot

With “Human NME7-X1 (from UniProt Q9Y5B8 125-376) (ligand)” the binding was “binds”.
